The target in the assay is RSV A2 F trimers (F open reading frame fused to isoleucine zipper domain followed by 8 HIS repeats, ILZ-8x HIS) (Respiratory Syncytial Virus A2) (UniProt P03420). Put plainly: intracellular staining of 293T cells transfected with the ILZ-8x HIS F construct.

No constants are given. Whether binding was seen depends on the method and setting. Some entries that bind do so weakly or less than the wild type.

B1: AM22 (recombinant AM22 mAb, human IgG1/Kappa) (antibody, V domains shown)
VH: QVQLVQSGAEVKKPGATVKVSCKISGHTLIKLSIHWVRQAPGKGLEWMGGYEGEVDEIFYAQKFQHRLTVIADTATDTVYMELGRLTSDDTAVYFCGTLGVTVTEAGLGIDDYWGQGTLVTVSS
VL: EIVLTQSPGTLSLSPGERATLSCRASQIVSRNHLAWYQQKPGQAPRLLIFGASSRATGIPVRFSGSGSGTDFTLTINGLAPEDFAVYYCLSSDSSIFTFGPGTKVDFK
notes: also called AM22 antibody; AM22 monoclonal antibody
Consider B1, for which the binding result is given as “binds”.

(Values after patent US20120070446A1 (AstraZeneca / MedImmune, published 2012).)
